# From the supplement of paper PMC12067093, “Discovery and optimisation of a covalent ligand for TRIM25 and its application to targeted protein ubiquitination” (Chemical Science, 2025)
# By UniProt entry, the sequences of proteins in these tests, tags left out. Where a name states a change or a piece, a line headed by the entry shows the natural chain unless it says otherwise.
# UniProt Q00796: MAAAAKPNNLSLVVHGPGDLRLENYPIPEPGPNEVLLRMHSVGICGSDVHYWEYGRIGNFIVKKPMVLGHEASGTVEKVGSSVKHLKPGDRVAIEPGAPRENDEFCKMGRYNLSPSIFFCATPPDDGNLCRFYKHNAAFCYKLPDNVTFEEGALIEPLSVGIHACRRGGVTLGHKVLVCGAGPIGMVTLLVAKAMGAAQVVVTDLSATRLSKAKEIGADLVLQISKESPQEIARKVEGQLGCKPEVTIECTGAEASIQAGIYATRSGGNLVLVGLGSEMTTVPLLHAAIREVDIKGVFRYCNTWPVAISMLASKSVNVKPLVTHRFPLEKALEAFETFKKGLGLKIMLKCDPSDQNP
# UniProt O76094: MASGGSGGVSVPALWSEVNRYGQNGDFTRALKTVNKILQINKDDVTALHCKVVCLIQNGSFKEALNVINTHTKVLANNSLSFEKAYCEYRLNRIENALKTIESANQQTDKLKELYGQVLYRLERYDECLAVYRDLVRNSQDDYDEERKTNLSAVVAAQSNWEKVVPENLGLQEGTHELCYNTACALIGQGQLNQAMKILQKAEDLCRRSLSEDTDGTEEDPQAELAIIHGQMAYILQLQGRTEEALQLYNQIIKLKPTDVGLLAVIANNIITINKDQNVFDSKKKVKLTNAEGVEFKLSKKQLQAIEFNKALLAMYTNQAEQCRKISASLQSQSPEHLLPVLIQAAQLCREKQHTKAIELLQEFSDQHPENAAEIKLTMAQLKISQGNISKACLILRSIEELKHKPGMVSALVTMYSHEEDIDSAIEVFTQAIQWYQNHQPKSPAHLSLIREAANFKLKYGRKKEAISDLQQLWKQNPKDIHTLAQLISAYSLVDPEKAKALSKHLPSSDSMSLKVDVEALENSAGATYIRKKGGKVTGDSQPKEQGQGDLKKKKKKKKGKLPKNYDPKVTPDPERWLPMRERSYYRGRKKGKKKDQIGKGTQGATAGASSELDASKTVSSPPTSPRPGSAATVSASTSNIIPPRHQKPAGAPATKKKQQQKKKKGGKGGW
# UniProt Q5M775: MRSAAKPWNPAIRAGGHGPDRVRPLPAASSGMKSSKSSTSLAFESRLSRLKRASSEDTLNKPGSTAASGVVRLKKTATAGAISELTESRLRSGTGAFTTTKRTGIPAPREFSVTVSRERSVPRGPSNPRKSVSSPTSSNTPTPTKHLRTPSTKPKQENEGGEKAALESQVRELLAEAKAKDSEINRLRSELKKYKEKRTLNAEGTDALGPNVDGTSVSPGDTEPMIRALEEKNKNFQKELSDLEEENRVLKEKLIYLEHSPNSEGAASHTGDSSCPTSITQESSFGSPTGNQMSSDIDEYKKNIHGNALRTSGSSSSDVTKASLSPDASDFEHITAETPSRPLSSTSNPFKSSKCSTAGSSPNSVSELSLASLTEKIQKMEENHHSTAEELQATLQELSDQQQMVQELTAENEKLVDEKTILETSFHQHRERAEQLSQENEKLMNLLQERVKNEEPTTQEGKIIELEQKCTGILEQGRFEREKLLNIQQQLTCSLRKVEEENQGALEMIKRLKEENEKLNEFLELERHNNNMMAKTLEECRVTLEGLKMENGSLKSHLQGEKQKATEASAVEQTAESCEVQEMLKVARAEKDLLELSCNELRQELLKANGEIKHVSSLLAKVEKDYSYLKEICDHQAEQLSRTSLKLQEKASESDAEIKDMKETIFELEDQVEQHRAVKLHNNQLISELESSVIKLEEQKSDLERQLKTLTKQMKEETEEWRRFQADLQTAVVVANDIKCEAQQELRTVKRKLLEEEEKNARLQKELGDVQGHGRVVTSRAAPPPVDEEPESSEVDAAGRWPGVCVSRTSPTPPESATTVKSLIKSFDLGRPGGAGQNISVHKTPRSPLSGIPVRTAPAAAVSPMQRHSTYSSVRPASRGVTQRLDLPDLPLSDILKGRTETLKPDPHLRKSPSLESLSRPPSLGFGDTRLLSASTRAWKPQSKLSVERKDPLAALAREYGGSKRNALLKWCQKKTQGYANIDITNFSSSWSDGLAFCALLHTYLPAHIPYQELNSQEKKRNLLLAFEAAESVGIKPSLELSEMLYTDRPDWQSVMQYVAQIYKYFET
# UniProt O15269: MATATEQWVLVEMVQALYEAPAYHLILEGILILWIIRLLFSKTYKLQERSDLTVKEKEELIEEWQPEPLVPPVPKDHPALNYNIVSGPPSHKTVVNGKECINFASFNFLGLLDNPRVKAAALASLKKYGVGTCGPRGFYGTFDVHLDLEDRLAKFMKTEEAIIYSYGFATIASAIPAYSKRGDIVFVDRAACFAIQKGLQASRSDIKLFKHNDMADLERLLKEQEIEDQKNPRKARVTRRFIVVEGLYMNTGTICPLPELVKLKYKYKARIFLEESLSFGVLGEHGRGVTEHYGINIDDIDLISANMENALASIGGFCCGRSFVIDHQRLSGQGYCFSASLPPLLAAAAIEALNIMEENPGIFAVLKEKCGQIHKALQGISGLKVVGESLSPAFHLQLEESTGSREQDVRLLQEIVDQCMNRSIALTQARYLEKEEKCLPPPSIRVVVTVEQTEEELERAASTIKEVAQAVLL
# UniProt Q92673: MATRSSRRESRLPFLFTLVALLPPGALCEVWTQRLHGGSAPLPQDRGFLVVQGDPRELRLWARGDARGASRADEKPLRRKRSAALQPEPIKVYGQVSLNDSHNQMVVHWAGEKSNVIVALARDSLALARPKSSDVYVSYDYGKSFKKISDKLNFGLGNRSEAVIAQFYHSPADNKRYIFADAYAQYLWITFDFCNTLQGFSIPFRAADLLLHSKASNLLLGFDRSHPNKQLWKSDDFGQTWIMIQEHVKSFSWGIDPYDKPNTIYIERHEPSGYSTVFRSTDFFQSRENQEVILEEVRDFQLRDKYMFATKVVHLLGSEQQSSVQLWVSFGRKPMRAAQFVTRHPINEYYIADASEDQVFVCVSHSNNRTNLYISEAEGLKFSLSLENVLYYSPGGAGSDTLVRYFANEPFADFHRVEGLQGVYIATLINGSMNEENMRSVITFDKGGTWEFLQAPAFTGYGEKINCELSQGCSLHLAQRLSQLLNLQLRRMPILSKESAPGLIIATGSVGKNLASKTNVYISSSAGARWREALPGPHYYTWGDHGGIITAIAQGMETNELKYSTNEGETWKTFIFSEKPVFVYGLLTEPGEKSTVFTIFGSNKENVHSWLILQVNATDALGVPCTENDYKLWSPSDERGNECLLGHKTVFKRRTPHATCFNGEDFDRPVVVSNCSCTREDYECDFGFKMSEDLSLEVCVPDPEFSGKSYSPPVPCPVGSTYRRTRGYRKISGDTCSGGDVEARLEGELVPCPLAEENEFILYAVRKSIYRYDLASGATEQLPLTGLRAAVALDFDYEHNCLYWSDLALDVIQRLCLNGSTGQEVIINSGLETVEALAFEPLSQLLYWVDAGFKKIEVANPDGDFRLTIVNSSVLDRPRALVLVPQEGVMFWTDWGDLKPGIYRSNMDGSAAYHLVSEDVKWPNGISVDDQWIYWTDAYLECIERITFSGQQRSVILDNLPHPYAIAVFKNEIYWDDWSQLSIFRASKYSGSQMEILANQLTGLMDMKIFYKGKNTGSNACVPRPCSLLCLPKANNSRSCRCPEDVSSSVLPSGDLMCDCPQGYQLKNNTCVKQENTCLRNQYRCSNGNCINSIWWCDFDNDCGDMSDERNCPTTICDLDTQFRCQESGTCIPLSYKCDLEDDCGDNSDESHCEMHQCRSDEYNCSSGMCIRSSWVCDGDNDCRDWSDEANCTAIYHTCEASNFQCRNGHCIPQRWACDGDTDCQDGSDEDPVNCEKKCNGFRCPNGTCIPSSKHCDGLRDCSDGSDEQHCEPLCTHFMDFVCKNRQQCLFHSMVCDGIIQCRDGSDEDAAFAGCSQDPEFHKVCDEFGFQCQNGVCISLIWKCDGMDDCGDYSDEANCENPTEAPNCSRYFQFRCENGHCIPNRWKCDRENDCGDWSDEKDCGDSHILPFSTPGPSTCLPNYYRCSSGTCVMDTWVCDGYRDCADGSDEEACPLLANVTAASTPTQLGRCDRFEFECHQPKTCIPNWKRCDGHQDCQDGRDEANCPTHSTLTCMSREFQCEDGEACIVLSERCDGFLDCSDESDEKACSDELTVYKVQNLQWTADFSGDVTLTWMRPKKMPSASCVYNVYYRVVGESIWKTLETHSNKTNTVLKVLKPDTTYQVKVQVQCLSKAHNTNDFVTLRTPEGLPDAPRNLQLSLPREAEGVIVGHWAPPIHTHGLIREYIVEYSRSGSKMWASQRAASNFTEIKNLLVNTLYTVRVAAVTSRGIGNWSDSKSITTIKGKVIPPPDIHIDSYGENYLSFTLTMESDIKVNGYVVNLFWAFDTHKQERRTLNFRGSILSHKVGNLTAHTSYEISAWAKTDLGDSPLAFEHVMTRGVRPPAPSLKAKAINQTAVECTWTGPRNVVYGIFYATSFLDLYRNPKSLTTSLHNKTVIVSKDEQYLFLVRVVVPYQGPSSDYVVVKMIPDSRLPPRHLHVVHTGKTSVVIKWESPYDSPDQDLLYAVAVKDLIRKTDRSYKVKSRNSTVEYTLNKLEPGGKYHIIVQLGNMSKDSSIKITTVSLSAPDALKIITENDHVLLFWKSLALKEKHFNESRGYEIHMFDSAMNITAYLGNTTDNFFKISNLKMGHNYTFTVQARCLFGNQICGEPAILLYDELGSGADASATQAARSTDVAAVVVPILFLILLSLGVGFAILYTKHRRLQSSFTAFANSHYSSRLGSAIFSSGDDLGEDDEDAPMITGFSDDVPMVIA
# UniProt P09132: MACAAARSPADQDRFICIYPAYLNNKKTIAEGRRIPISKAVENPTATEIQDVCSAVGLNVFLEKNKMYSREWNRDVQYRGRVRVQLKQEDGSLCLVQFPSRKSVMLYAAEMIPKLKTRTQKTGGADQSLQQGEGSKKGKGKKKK
# UniProt Q9Y5W7: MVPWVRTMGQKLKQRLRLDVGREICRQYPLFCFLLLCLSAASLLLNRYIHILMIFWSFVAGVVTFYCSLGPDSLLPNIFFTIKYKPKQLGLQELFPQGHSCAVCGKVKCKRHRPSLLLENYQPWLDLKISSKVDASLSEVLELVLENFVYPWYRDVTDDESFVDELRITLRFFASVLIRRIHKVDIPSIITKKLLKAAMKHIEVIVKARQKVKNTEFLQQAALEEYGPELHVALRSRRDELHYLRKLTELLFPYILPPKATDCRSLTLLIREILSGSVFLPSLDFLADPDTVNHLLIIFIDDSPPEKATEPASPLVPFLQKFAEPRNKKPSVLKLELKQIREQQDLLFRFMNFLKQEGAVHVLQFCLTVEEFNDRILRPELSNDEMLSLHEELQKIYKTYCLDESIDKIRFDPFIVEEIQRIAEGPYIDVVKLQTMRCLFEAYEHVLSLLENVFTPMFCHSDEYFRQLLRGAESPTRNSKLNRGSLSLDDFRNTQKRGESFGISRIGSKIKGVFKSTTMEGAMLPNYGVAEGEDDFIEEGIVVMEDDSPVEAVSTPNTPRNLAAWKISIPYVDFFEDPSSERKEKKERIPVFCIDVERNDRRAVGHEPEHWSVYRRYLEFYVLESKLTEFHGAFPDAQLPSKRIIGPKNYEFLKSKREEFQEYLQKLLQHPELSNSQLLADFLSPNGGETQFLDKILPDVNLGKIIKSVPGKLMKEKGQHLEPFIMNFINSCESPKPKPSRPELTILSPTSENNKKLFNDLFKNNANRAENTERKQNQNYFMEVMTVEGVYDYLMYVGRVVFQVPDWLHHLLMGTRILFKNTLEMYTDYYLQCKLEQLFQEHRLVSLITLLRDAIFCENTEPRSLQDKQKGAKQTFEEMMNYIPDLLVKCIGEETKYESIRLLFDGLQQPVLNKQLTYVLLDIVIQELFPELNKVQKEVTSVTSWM
# UniProt O15270: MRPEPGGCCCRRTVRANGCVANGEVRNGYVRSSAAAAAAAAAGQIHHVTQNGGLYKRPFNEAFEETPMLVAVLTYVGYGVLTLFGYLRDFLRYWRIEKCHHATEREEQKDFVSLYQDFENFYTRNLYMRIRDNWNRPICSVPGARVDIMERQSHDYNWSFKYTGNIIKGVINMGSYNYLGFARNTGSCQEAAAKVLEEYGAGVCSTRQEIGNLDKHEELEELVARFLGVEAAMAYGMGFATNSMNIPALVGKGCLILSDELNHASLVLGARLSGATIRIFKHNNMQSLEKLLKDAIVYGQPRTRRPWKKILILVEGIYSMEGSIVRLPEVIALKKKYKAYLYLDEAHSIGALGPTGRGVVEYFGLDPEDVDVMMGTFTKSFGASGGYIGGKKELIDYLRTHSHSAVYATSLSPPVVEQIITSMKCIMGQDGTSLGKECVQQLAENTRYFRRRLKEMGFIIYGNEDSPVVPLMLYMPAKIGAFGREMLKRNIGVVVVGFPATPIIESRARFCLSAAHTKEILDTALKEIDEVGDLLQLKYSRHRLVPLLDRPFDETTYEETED
# UniProt P09234, whole entry, looked up: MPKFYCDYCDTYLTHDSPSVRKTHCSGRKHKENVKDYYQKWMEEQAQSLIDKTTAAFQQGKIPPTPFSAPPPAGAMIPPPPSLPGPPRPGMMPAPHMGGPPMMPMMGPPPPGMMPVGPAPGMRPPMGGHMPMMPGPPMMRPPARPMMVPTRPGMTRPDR
# The list shows a part of the results.
# Compound: CC1Cc2ccccc2N1C(=O)C1CCCN(C1)C(=O)CCl (mixture of isomers) [TRIM25 ligand 11 (diastereomer mixture)]
# Test: probe-labelled cysteine peptide fold change vs DMSO (competition) (log2 fold change); higher = less target engagement (more negative = stronger competition)
# Settings: THP-1, incubation time: 4 h
# 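Further: competitive chemoproteomic profiling in live THP-1 cells with an iodoacetamide desthiobiotin (IA-DTB) probe, comparing probe-labelled peptide intensities in compound-treated cells against DMSO-treated controls.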
Target,probe-labelled cysteine peptide fold change (10 µM),probe-labelled cysteine peptide fold change (50 µM)
SNX29_Q8TEQ0_121_CALNEHSLER (UniProt Q8TEQ0),0.0515,-0.00659
SPG11_Q96JI7_1890_LLDDGCVHEASR (UniProt Q96JI7),0.0515,-0.169
SORD_Q00796_106_ENDEFCK (UniProt Q00796),-0.112,-0.0179
SRA1_Q9HD15_134_QVCDDISR (UniProt Q9HD15),-0.0271,-0.0296
SNU13_P55769_93+102_ACGVSRPVIACSVTIK (UniProt P55769),-0.144,0.0201
SRP72_O76094_349_ISASLQSQSPEHLLPVLIQAAQLCR (UniProt O76094),0.269,-0.0633
SRM_P19623_123_HPSVESVVQCEIDEDVIQVSK (UniProt P19623),0.14,-0.115
SPECC1_Q5M775_740_CEAQQELR (UniProt Q5M775),0.056,-0.0406
SP4_Q02446_625_VACSCPNCR (UniProt Q02446),-0.00227,0.0615
SORBS3_O60504_521_LCDDGPQLPTSPR (UniProt O60504),-0.0702,-0.115
SNX32_Q86XE0_237_CLADDYIPISAALSSLGTQEVNQLR (UniProt Q86XE0),0.34,-0.184
SPPL2A_Q8TCT8_95_AVVVPWGSCHFLEK (UniProt Q8TCT8),0.0216,-0.217
SRP68_Q9UHB9_525_CSLQAAAILDANDAHQTETSSSQVK (UniProt Q9UHB9),0.0932,-0.212
SRM_P19623_71_TYGNVLVLDGVIQCTERDEFSYQEMIANLPLCSHPNPR (UniProt P19623),0.207,0.393
SPTLC1_O15269_100_ECINFASFNFLGLLDNPR (UniProt O15269),0.0114,0.0695
SPAG1_Q07617_680_QDCDQALQLADGNVK (UniProt Q07617),-0.107,-0.0204
SORL1_Q92673_736_ISGDTCSGGDVEAR (UniProt Q92673),0.052,-0.00891
SON_P18583_2070_ANAAAMCAK (UniProt P18583),0.0129,-0.103
SRP19_P09132_17_FICIYPAYLNNK (UniProt P09132),0.0533,0.113
SNX14_Q9Y5W7_857_DAIFCENTEPR (UniProt Q9Y5W7),0.31,0.161
SOGA1_O94964_1113_EITNCVR (UniProt O94964),-0.0643,0.0743
SP100_P23497_266+270_EMPCPLPCDEESPEAELHNHGIQINSCSVR (UniProt P23497),-0.363,-0.458
SRP68_Q9UHB9_87_YRGYCSR (UniProt Q9UHB9),-0.132,-0.139

Target,probe-labelled cysteine peptide fold change (10 µM),probe-labelled cysteine peptide fold change (50 µM)
SRP19_P09132_94_QEDGSLCLVQFPSRK (UniProt P09132),-0.133,-0.0491
SPTAN1_Q13813_1444_MMLDQCLELQLFHR (UniProt Q13813),0.0765,0.0852
SP3_Q02447_623+628_QHICHIPGCGK (UniProt Q02447),-0.121,0.0275
SRBD1_Q8N5C6_571_LAIISPTSQILHTDVVYLHCGQGFR (UniProt Q8N5C6),0.173,0.216
SPATA2_Q9UM82_41_QRPGSDECLR (UniProt Q9UM82),-0.103,-0.177
SRCAP_Q6ZRS2_1993_FIFVMPPVEAPPPSLHACHPPPWLAPR (UniProt Q6ZRS2),-0.00141,-0.0784
SNX6_Q9UNH7_149_TVAMHEVFLCR (UniProt Q9UNH7),-0.00902,-0.143
SQSTM1_Q13501_113_RDHRPPCAQEAPR (UniProt Q13501),-0.0908,-0.174
SRP72_O76094_323_ALLAMYTNQAEQCR (UniProt O76094),-0.0105,0.0132
SP100_P23497_16_LNECISPVANEMNHLPAHSHDLQR (UniProt P23497),-0.103,-0.152
SPAST_Q9UBP0_220_SQTDVYNDSTNLACR (UniProt Q9UBP0),-0.142,-0.0365
SREBF2_Q12772_832_AGDQEEESCEFSSALEYLK (UniProt Q12772),0.0142,0.158
SPINT1_O43278_424_FTYGGCYGNK (UniProt O43278),0.0778,0.114
SPAG1_Q07617_825_EACAHLLAITAPK (UniProt Q07617),-0.0823,-0.0988
SPTLC1_O15269_133_KYGVGTCGPR (UniProt O15269),-0.199,-0.03
SORBS3_O60504_482_KGEHICLIR (UniProt O60504),0.0742,0.0203
SPECC1_Q5M775_578_ATEASAVEQTAESCEVQEMLK (UniProt Q5M775),0.0146,-0.159
SNX5_Q9Y5X3_250_NVADDYIHTAACLHSLALEEPTVIKK (UniProt Q9Y5X3),-0.0814,-0.118
SPATS2L_Q9NUQ6_111_DKVERPEAGPLQPQPPQIQNGPMNGCEK (UniProt Q9NUQ6),-0.177,-0.279
SPTLC2_O15270_188_NTGSCQEAAAK (UniProt O15270),0.0981,0.0507
SPTAN1_Q13813_158_ECEDVMDWINDK (UniProt Q13813),-0.0266,0.0967
SRP72_O76094_128_YDECLAVYR (UniProt O76094),0.102,0.151
SPATS2L_Q9NUQ6_367_TPCSSLLPLLNAHAATSGK (UniProt Q9NUQ6),0.0873,-0.185

Target,probe-labelled cysteine peptide fold change (10 µM),probe-labelled cysteine peptide fold change (50 µM)
SRBD1_Q8N5C6_397_HVCIQSSLAK (UniProt Q8N5C6),0.0119,0.0956
SORBS3_O60504_645_EGDRVDVMQQCDDGWFVGVSR (UniProt O60504),-0.164,-0.18
SORL1_Q92673_1302_QQCLFHSMVCDGIIQCR (UniProt Q92673),0.0347,0.112
SRP9_P49458_39_HSDGNLCVK (UniProt P49458),-0.139,0.0147
SPTLC2_O15270_99_CHHATER (UniProt O15270),0.261,0.971
SRC_P12931_248_LTTVCPTSKPQTQGLAK (UniProt P12931),0.103,-0.0306
SPTBN1_Q01082_1900_SLLDACESRR (UniProt Q01082),-0.119,-0.13
SNX14_Q9Y5W7_732_GQHLEPFIMNFINSCESPKPK (UniProt Q9Y5W7),-0.0516,-0.121
SPECC1_Q5M775_598_DLLELSCNELR (UniProt Q5M775),-0.0445,0.151
SPAG1_Q07617_633_EEGNQCVNDK (UniProt Q07617),-0.0737,-0.0909
SPINDOC_Q9BUA3_12_AEGAALDCFEVTLK (UniProt Q9BUA3),-0.242,-0.282
SPATS2_Q86XZ4_61_SNNEIILVLQHFDNCVDK (UniProt Q86XZ4),-0.157,-0.218
SNRPC_P09234_25_THCSGR (UniProt P09234),-0.0142,0.157
SP1_P08047_633_KQHICHIQGCGK (UniProt P08047),-0.185,-0.216
SRCAP_Q6ZRS2_1926_IFQLSEAHGALAPVYGTEVLDFCTLPQPVASPIGPR (UniProt Q6ZRS2),0.683,0.741
SRP68_Q9UHB9_344_LFESMLSECR (UniProt Q9UHB9),-0.0404,-0.0262
SNTB1_Q13884_515_DGEIQLDLHSCPK (UniProt Q13884),0.144,0.6
SRP68_Q9UHB9_562_FETFCLDPSLVTK (UniProt Q9UHB9),-0.102,-0.146
SP100_P23497_373_EGQEATCSRPQIVPEPMDFR (UniProt P23497),-0.0901,-0.296
SORD_Q00796_165_LPDNVTFEEGALIEPLSVGIHACR (UniProt Q00796),-0.0397,-0.259
SOD1_P00441_147_LACGVIGIAQ (UniProt P00441),-0.0438,0.128
